Results are given in words; binding and its absence hold for the method and conditions named. In cells and extracts the contact can be indirect. Here binding means that the protein was enriched with, or labelled near, the bait; the list need not be complete. Tags and fused reporters may be left off the sequences shown.
Target: T1, 6HIS-HA-JHD2 (S. cerevisiae) (UniProt P47156)
T1 sequence: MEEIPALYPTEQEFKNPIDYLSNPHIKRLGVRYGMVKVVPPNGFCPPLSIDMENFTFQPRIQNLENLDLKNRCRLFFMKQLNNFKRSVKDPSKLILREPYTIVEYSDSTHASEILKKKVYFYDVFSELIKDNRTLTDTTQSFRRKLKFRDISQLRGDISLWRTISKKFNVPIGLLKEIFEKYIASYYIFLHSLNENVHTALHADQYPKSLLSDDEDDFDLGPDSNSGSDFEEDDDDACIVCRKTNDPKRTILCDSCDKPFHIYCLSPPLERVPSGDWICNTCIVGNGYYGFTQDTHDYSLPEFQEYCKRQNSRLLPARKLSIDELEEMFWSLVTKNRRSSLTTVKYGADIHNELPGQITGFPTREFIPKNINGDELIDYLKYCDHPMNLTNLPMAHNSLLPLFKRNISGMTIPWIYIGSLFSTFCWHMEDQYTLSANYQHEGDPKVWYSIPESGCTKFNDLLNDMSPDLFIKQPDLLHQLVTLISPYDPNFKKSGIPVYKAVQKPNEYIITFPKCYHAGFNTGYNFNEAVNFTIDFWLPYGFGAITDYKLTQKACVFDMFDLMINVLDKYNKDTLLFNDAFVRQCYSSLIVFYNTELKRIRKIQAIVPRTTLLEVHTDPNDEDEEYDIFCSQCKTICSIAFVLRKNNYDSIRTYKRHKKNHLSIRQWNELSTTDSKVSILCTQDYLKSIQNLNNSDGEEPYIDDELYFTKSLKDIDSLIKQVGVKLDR
Experiment: affinity purification with mass spectrometry; whole cell extracts of a wild-type strain with 6HIS-HA-JHD2 induced from the GAL1 promoter for 6 hours; Ni-NTA agarose and anti-HA agarose beads at 4°C for 24 hours; proteins found with the empty vector strain excluded

Protein sequences, listed by entry. Tags and fused reporters are not part of them.
UniProt P52593: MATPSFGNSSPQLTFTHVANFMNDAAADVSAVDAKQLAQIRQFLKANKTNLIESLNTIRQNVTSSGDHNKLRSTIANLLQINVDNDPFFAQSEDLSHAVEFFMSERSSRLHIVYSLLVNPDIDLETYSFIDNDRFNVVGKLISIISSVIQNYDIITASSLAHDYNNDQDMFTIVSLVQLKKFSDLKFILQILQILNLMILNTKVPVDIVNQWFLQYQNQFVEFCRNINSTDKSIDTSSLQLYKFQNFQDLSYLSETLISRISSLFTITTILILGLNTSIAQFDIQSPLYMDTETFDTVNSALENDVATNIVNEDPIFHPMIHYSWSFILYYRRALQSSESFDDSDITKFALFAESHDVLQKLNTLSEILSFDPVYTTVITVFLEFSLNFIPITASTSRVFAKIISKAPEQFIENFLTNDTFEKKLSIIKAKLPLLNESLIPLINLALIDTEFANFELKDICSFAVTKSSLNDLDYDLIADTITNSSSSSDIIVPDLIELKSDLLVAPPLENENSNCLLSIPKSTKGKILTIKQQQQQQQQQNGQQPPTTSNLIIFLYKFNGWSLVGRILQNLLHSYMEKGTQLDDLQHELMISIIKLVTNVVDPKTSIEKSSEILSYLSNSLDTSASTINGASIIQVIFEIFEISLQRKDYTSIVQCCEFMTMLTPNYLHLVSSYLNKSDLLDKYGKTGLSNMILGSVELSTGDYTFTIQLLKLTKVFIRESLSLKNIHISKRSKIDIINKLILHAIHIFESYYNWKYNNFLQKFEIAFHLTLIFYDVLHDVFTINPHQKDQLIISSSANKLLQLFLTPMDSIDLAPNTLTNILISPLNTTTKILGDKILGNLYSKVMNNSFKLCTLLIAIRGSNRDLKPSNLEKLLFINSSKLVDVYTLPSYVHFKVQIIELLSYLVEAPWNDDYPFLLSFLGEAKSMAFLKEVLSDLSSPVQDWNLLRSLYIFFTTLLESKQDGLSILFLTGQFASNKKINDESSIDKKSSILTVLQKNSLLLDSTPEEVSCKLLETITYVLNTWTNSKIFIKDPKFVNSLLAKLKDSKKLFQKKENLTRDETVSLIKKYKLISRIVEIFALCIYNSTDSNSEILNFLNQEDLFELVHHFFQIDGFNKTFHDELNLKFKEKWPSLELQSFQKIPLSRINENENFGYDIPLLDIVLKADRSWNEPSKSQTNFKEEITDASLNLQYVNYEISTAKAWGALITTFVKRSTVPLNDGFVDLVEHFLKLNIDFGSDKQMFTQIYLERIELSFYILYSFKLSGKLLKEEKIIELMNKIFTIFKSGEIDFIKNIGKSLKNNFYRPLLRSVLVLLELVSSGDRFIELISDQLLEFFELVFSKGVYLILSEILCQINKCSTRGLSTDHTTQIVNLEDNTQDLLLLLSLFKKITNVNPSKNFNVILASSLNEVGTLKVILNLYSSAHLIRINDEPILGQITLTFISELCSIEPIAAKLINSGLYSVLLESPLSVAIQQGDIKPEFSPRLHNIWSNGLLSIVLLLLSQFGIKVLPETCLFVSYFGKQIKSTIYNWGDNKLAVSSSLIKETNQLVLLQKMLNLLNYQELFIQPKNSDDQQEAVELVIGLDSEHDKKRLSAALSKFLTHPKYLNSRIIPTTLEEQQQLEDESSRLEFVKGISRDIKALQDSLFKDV
UniProt Q12262: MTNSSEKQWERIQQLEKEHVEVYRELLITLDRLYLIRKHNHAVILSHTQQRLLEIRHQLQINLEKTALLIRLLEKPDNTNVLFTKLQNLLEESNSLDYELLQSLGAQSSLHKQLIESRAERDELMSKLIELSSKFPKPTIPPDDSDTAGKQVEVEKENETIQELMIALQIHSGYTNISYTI
UniProt P13712: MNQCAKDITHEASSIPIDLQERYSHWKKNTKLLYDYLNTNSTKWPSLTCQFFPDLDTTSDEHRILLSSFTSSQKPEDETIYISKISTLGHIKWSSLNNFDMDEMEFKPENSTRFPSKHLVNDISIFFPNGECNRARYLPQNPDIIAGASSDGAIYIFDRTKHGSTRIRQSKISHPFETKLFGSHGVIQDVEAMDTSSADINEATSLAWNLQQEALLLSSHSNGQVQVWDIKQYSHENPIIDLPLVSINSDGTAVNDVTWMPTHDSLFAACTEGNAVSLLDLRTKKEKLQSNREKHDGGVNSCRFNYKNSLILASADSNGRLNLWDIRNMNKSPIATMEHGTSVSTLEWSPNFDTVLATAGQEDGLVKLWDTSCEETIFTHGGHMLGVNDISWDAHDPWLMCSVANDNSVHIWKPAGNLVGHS
UniProt P20676: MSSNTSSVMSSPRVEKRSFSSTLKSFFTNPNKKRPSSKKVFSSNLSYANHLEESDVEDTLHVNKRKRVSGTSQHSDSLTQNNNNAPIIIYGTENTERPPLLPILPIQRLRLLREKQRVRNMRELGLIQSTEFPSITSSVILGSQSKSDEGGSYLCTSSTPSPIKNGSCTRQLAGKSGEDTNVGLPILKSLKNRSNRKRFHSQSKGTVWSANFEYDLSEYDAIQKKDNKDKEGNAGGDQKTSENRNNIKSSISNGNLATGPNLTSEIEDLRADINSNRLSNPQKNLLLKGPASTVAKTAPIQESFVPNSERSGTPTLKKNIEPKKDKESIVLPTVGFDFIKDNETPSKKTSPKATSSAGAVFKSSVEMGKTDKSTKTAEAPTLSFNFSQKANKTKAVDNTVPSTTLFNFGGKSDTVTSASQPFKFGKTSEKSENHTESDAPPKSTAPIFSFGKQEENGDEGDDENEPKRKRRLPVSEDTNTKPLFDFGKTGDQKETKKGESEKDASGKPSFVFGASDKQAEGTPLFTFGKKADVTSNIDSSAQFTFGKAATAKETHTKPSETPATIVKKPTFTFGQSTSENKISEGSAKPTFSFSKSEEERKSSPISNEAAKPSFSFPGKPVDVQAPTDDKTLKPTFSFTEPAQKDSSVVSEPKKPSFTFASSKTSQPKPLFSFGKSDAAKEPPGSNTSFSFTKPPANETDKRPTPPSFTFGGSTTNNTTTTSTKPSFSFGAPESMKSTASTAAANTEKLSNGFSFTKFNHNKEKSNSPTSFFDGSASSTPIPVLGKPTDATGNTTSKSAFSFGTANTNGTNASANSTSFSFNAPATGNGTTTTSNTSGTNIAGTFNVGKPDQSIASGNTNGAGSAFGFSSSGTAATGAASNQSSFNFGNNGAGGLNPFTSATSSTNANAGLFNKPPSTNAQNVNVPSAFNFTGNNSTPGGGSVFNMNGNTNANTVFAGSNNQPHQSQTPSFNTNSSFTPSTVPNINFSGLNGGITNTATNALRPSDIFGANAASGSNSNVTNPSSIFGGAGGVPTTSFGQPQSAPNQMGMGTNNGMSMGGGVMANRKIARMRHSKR
UniProt Q04199: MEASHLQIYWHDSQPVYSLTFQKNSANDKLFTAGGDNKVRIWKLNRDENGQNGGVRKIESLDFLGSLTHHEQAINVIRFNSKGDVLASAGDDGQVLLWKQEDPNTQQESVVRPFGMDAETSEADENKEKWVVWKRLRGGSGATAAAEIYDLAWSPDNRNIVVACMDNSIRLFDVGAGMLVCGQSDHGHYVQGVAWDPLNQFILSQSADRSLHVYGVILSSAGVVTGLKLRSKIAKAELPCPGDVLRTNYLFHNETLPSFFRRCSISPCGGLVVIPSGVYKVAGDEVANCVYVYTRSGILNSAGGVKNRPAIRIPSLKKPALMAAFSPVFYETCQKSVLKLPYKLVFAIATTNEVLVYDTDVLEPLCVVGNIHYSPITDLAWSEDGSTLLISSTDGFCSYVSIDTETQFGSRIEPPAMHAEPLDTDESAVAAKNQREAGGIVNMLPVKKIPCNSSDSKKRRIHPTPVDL
UniProt P40368: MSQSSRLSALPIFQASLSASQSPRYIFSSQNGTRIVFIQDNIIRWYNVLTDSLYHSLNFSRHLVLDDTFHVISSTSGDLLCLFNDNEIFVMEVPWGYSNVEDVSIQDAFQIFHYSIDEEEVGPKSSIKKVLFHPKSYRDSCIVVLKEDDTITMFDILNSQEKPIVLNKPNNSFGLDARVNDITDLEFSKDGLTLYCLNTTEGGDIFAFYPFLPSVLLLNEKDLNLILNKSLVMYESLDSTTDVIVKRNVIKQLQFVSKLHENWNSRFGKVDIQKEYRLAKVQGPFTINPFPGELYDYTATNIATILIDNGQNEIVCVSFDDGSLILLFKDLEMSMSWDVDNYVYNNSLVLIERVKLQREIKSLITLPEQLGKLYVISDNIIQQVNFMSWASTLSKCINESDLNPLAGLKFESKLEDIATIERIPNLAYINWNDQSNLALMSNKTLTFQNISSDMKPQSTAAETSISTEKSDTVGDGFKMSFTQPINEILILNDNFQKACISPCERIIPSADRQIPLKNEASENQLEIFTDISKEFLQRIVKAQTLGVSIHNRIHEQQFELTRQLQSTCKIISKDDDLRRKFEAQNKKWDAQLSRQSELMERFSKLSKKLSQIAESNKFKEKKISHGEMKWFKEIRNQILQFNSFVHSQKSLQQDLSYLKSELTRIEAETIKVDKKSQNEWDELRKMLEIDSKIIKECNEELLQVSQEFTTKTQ
UniProt P29539: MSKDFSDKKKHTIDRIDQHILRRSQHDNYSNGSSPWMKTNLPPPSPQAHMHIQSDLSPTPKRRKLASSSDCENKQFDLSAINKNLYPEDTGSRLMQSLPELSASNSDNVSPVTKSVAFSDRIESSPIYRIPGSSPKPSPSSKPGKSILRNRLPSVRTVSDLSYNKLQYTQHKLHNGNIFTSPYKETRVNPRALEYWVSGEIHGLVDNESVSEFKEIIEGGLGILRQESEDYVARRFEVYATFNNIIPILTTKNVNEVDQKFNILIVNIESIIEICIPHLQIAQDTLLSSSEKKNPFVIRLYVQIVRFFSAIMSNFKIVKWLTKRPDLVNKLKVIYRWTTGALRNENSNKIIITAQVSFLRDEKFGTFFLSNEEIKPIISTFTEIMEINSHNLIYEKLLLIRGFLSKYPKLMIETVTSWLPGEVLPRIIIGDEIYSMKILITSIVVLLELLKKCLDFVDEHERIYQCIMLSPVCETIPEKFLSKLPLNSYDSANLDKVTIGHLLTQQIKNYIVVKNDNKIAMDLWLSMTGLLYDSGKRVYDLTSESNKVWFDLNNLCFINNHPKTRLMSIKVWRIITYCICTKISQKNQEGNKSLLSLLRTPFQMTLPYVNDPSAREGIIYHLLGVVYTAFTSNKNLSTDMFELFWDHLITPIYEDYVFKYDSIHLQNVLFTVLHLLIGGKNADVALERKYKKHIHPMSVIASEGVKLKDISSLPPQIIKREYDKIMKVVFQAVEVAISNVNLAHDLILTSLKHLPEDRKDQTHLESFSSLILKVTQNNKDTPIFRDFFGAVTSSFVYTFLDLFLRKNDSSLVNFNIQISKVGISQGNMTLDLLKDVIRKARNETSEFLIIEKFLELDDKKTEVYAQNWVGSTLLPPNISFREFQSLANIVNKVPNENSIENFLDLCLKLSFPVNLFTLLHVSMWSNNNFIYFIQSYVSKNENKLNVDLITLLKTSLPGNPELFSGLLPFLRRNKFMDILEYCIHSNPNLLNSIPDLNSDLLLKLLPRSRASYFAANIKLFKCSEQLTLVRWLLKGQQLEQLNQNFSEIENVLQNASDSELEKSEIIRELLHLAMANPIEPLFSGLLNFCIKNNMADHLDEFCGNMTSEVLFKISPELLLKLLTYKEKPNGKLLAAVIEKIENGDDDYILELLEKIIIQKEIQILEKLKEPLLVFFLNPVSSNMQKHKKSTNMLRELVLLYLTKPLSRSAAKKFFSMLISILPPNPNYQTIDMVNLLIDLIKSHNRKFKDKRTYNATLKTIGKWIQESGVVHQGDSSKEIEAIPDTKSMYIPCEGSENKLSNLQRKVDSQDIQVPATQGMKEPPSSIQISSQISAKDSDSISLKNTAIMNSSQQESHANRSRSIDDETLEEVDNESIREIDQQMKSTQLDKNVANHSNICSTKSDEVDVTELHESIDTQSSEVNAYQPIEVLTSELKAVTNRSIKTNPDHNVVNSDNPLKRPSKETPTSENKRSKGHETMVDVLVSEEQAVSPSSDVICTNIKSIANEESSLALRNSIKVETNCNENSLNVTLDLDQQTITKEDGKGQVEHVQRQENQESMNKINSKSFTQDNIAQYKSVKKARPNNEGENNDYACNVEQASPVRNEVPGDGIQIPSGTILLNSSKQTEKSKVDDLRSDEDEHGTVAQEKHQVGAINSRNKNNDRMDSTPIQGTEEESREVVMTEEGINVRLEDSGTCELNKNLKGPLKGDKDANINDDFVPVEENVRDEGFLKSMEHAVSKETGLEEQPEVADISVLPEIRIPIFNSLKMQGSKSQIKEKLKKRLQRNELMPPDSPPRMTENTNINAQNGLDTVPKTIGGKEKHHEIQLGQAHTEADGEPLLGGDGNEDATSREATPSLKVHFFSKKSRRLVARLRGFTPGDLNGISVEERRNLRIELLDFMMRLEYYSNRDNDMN

binding, binds:
NUP188 (from UniProt P52593 1-1655)
MLP1 (from UniProt Q02455 1-1875)
MCM16 (from UniProt Q12262 1-181)
SFH1 (from UniProt Q06168 1-426)
MSI1 (from UniProt P13712 1-422)
RTS1 (from UniProt P38903 1-757)
NUP1 (from UniProt P20676 1-1076)
NIC96 (from UniProt P34077 1-839)
CDC21 (from UniProt P06785 1-304)
RLF2 (from UniProt Q12495 1-606)
NUP42 (from UniProt P49686 1-430)
NUF2 (from UniProt P33895 1-451)
NUP100 (from UniProt Q02629 1-959)
CAC2 (from UniProt Q04199 1-468)
TAE1 (from UniProt P38340 1-232)
SMC3 (from UniProt P47037 1-1230)
NUP82 (from UniProt P40368 1-713)
NUP170 (from UniProt P38181 1-1502)
GCD14 (from UniProt P46959 1-383)
MAD2 (from UniProt P40958 1-196)
NUP2 (from UniProt P32499 1-720)
ABD1 (from UniProt P32783 1-436)
CEP3 (from UniProt P40969 1-608)
POM152 (from UniProt P39685 1-1337)
TRM8 (from UniProt Q12009 1-286)
SCM3 (from UniProt Q12334 1-223)
NUP49 (from UniProt Q02199 1-472)
NUP145
NUP159 (from UniProt P40477 1-1460)
RIF1 (from UniProt P29539 1-1916)
DSK2 (from UniProt P48510 1-373)
NUP157 (from UniProt P40064 1-1391)
CBF1 (from UniProt P17106 1-351)
TRM1
Bni1 (from UniProt P41832 1-1953)
NUP192 (from UniProt P47054 1-1683)
DIM1 (from UniProt P41819 1-318)
NUP57 (from UniProt P48837 1-541)
SPC24 (from UniProt Q04477 1-213)

From paper PMC12204631
